{"source": "PubChem BioAssay AID504774 (Drosophila RNAi Screening Center, 2011)", "purpose": "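Genes required for cells to withstand methyl methanesulphonate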 (primary screen)", "system": "Drosophila Kc167 cells", "reagent": "long dsRNA against Drosophila genes, about 0.25 µg dsRNA per well", "time to read-out": "about 6 days: 3 days knock-down, then 3 days with or without MMS", "conditions": "methyl methanesulphonate 0.004% (w/v) for 3 days after knock-down", "measured": "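Viability in wells given MMS, read as ATP luminescence, normalised by quantiles plate by plate and averaged across replicates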", "scale": "mean viability with MMS and viability with MMS: higher = more surviving cells after MMS", "note": "In all, the deposit lists about 23,000 reagents; below is a random part of those with a known target gene and a result. 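Values are quantile-normalised luminescence on an arbitrary scale; higher means more cells surviving MMS.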 The numbers tell different reagents against one gene apart. Names joined by + are all predicted targets of the reagent. Further read-outs or replicates are left out here."}
The first 2 records, to show the layout:
{"Gene": "CG30324", "reagent": 1, "mean viability with MMS": 3.54e6, "viability with MMS, replicate 1": 4.02e6}
{"Gene": "CG5860", "reagent": 1, "mean viability with MMS": 3.51e6, "viability with MMS, replicate 1": 3.95e6}

Main list, repeating the preview:
{"Gene": "CG30324", "reagent": 1, "mean viability with MMS": 3.54e6, "viability with MMS, replicate 1": 4.02e6}
{"Gene": "CG5860", "reagent": 1, "mean viability with MMS": 3.51e6, "viability with MMS, replicate 1": 3.95e6}
{"Gene": "Dop1R1 (Dopamine 1-like receptor 1)", "reagent": 1, "mean viability with MMS": 3.43e6, "viability with MMS, replicate 1": 3.86e6}
{"Gene": "Dop1R1 (Dopamine 1-like receptor 1)", "reagent": 2, "mean viability with MMS": 3.66e6, "viability with MMS, replicate 1": 4.02e6}
{"Gene": "CG4586", "reagent": 1, "mean viability with MMS": 3.52e6, "viability with MMS, replicate 1": 3.78e6}
{"Gene": "Gr98a (Gustatory receptor 98a)", "reagent": 1, "mean viability with MMS": 1.77e6, "viability with MMS, replicate 1": 3.98e6}
{"Gene": "CG2931", "reagent": 1, "mean viability with MMS": 3.75e6, "viability with MMS, replicate 1": 4.25e6}
{"Gene": "Dim1", "reagent": 1, "mean viability with MMS": 3.18e6, "viability with MMS, replicate 1": 3.55e6}
{"Gene": "CG4328", "reagent": 1, "mean viability with MMS": 2.79e6, "viability with MMS, replicate 1": 3.40e6}
{"Gene": "CG4328", "reagent": 2, "mean viability with MMS": 3.49e6, "viability with MMS, replicate 1": 3.98e6}
{"Gene": "CG6294 + CG6299 + CG15642", "reagent": 1, "mean viability with MMS": 3.64e6, "viability with MMS, replicate 1": 4.07e6}
{"Gene": "IntS9 (Integrator 9)", "reagent": 1, "mean viability with MMS": 3.43e6, "viability with MMS, replicate 1": 3.94e6}
{"Gene": "CG32152", "reagent": 1, "mean viability with MMS": 3.52e6, "viability with MMS, replicate 1": 4.00e6}
{"Gene": "Dronc (Death regulator Nedd2-like caspase)", "reagent": 1, "mean viability with MMS": 3.53e6, "viability with MMS, replicate 1": 4.07e6}
